Patent publication US20070110804A1, “Drug polymer complexes” (ROYER BIOMEDICAL, INC., priority 2003, published 2007)

Excerpt: A “yes” entry means that a complex of low solubility forms on mixing the sodium salt of the polymers and the salt of the active ingredient.

CCC[C@@H]1C[C@@H](C(=O)N[C@@H]([C@H]2O[C@H](SC)[C@H](O)[C@@H](O)[C@H]2O)[C@H](C)Cl)N(C)C1 [Clindamycin]
complex of low solubility forms (yes/no), polymer CMC-L: no | complex of low solubility forms (yes/no), polymer CMC-M: no | complex of low solubility forms (yes/no), polymer Dextran Sulfate-500: yes
